Source: PMC9637652
These are yes or no findings as the source states them, for the method shown. In cells and extracts the contact can be indirect. Some results given as binding are weak or reduced against the parent protein; the word gives no strength.

Amino acid sequences for entries named in this document (tags omitted). Residues count along the entry.
UniProt P16070, residues 21-742: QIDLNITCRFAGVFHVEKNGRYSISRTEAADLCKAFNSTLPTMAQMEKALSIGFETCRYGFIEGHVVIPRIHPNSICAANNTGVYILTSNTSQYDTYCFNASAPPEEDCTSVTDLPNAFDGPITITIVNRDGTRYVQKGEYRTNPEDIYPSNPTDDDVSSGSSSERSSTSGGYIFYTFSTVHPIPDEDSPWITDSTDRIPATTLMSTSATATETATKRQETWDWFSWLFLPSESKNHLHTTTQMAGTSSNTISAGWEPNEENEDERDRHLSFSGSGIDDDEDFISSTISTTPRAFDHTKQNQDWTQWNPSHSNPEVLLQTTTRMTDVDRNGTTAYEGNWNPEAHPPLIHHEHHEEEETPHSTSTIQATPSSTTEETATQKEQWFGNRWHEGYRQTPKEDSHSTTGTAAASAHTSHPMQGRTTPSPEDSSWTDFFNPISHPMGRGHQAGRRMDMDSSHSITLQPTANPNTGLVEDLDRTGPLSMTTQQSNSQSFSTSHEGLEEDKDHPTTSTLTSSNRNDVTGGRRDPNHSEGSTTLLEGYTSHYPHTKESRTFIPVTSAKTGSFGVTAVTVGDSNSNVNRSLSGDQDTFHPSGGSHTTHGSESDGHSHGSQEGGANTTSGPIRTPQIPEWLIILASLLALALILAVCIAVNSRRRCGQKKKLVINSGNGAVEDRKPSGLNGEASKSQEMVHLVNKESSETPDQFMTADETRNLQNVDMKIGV
UniProt P26022, residues 18-381: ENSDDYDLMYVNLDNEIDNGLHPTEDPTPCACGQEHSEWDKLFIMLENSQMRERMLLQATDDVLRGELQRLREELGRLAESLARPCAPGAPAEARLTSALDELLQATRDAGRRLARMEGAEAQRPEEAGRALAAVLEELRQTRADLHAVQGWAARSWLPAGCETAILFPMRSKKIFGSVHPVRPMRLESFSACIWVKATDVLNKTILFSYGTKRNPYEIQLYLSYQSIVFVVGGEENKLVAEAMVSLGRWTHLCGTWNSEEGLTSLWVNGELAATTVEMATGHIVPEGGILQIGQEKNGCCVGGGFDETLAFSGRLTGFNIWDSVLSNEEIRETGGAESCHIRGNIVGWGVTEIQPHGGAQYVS

Biological target: CD44 on HFL1 cells (human (endogenous in HFL1)) (UniProt P16070)
Assay: proximity ligation; HFL1 cells on coverslips treated with or without 100 ng/ml His-PTX3 for 1 h, fixed with 4% paraformaldehyde; in situ PLA with anti-His and anti-CD44 (active form) antibodies; puncta per cell counted; only the binder purified

binding: binds
Substance: His‐PTX3 fusion protein (from UniProt P26022 18-381) (ligand)
